Substitutions are numbered along the chain they refer to. Results are given in words; binding and its absence hold for the method and conditions named. Some results given as binding are weak or reduced against the parent protein; the word gives no strength.

T1: human SEMA4D, full length, on CHO-K1 cells (CHO-K1 hSEMA4D) (human) (UniProt Q92854)
T1 sequence (looked up): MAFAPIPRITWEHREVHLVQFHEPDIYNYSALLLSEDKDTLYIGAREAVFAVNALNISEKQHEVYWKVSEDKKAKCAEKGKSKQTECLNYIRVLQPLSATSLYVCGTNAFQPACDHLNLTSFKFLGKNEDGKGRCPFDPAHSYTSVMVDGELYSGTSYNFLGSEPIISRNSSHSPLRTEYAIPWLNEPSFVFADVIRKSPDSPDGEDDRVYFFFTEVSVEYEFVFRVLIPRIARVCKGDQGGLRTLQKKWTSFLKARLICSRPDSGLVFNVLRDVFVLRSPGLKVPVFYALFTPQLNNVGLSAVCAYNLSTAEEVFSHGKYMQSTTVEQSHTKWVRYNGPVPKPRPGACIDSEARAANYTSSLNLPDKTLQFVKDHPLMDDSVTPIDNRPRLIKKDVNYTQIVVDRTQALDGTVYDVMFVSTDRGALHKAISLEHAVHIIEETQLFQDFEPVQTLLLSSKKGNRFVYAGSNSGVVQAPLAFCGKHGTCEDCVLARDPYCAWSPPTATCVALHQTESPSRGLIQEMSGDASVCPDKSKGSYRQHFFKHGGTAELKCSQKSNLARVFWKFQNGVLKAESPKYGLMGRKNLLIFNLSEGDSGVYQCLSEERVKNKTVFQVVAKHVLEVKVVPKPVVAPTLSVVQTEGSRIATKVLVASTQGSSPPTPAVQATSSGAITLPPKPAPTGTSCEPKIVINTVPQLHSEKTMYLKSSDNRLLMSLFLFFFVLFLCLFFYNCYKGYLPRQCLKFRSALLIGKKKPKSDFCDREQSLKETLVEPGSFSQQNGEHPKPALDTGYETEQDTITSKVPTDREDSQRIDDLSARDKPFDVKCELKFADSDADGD

T2: mouse SEMA4D, full length, on CHO-K1 cells (CHO-K1 mSEMA4D) (mouse) (UniProt O09126)
T2 sequence (looked up): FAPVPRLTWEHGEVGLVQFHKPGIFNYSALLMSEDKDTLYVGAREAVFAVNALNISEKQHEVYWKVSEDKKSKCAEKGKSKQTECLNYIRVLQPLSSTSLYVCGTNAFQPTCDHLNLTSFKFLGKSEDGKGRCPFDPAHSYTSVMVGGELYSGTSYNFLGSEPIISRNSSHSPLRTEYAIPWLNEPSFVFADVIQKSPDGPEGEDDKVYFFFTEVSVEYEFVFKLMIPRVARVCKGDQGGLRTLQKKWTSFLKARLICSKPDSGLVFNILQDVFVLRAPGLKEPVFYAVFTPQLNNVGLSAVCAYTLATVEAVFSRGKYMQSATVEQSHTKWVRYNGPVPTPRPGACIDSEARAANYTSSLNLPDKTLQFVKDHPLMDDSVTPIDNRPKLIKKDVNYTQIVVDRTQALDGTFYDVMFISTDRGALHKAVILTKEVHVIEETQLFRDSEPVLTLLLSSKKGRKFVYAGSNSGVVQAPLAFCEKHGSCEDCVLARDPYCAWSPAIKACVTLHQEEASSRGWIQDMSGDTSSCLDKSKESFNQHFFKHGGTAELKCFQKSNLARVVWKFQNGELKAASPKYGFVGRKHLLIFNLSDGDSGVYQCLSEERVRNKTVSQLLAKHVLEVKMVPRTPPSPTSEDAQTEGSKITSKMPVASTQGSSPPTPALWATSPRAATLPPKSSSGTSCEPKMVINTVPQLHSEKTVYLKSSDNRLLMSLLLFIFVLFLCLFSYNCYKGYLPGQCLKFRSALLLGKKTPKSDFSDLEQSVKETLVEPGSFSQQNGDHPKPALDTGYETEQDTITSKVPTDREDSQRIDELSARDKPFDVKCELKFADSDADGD

B1: 5D8 (antibody, human IgG4, V domains shown)
VH: QVQLQESGAGLLKPSETLSLTCAVYGGSFSGYYWSWIRQPPGKGLEWIGEINHSGSTNYNPSLKSRVTISVDTSKNQFSLKLSSVTAADTAVYYCARTRYYGSGSWSLFDYWGQGTLVTVSS
VL: QPVLTQPPSASGAPGQTVTISCSGGNSNVGTNTVNWYQQLPGTAPKLLIYYDDLLASGVSDRFSGSKSGTSASLAISGLQAEEEADYYCAAWDDTLNGWVFGGGTKLTVL
B2: 31G10C5 (antibody, V domains shown)
VH: EVQLQQSGAELVRPGASVKLSCTASGFNIKDDYIHWVKQRPEQGLEWIGWIDPANGHIEYASNFQAKATITADTSSNTAYLQLSSLTSEDTAVYYCTTGDYDGFTYWGQGTLVTVST
VL: QIVLTQSPAIMSASPGEKVTISCSARSSVSYMYWYQQKPGSSPKPWIYRTSNLASGVPARFSGSGSGTSYSLTISSMEAEDAATYYCQHYHTYPYTFGGGTKLEIK
B3: 31C11G2 (antibody, V domains shown)
VH: B2 VH with D32E, I58T, N63R, T105V
VL: B2 VL with S22F
B4: 32C8F10 (antibody, V domains shown)
VH: B2 VH with D32E, I58T, N63R, T105A
VL: B2 VL
B5: 37C4F7 (antibody, V domains shown)
VH: EFQLQQSGPEVVKPGASVKISCKASGYSFTDYNMNWMKQSKGKSLEWIGVINPNYGTTTYNQNFKGKATLTVDQSSSTAYMQLNSLTSEDSAVYYCARDMYYVYAYYTMDYWGQGTSVTVSS
VL: DVVMTQTPLSLPVSLGDQASISCRSSQSLVHSNGHTYLHWYLQRPGQSPTLLIYKVSNRFSGVPDRFSGSGSGTDFTLKISRVEAEDLGVYFCSQGTHVPWTFGGGTKLEIK
B6: 38H2E3 (antibody, V domains shown)
VH: B5 VH with N52S, N54D, G66D, R98K, Q114H
VL: B5 VL with F67V, W101R
B7: 42B7G2 (antibody, V domains shown)
VH: QVQLQQSGAELARPGASVKLSCKASGYTFTDYGISWVKQRTGQGLEWIGEIYLRNDNSYYNEKFKGKATLTADKSSNTAYMELRSLTSEDSAVYFCARWGDHGNNYEDAMDYWGQGTSVTVSS
VL: DIVLTQSPASLAMSLGKRATISCRASESVSIIGSNLIHWYQQKPGQPPKLLIYHASNLETGVPARFSGSGSRTDFTLTIDPVEEDDVAIYYCLQSRKVPYTFGGGTKLEIK
B8: 2D5 (antibody, human IgG4, V domains shown)
VH: QVTLKESGPTLVKPTQTLTLACSFSGFSLTTTGVAVTWIRQPPGKALEWLALIDWDDDKYYSTSLKTRLTISKDTSKNQVVLTMTNMDPVDTATYYCARIASGDSGGYFADWGQGTLVTVSS
VL: SSELTQAPSVSVSPGQTASITCSGDKLDDKYVYWYQQKPGQPPVLVIYRDNKRPSGIPERFSGSNSGNTATLTISATQALDEADYYCQAWESSSDQYVFGTGTKVTVL
B9: 37F11F9 (antibody, V domains shown)
VH: EVQLQQSGPVLVKPGASVKMSCKASGYTFTDYYMNWVKQSHGKSLEWIGLINPYSGGSTFNQKFKAKATLTVDKSSSSAYMDLNSLTSEDSAVYYCARVGDGYYGVTHGMDYWGQGTSVTVSS
VL: DIVMTPSQKFMSTTVGDRVSITCKASQNVGTAVAWYQQKPGQSPTILIYSASNRYTGVPDRFTGSGSGTDFTLTISNMKSEDLADYFCQQYYIYPFTFAAGTKLELK

For the first assay, the target named is T1, human SEMA4D, full length, on CHO-K1 cells (CHO-K1 hSEMA4D) (human). Kind of assay: FACS, CHO-K1 hSEMA4D cells.
For the molecule B1, the binding result is “binds”.
The same measure, in the same setting: for B2 the value was “binds”.
Regarding B3, the binding entry is listed as “binds”.
For B4, the binding result was “binds”.
For the molecule B5, the binding entry was “binds”.
On the same count and under the same terms, the same measure for B6: “binds”.
Still for that read-out and setting: the same measure for B7: “binds”; for B8: “binds”; for B9: “binds”.

In the next assay the target is T2, mouse SEMA4D, full length, on CHO-K1 cells (CHO-K1 mSEMA4D) (mouse). Kind of assay: FACS, CHO-K1 mSEMA4D cells.
With B1, the binding result is listed as “binds”.
On the same count and under the same terms, the same measure for B8: “binds”.

Values taken from patent publication US20220073608A1.
